Test results from US20230242673A1.
No constants are given. Whether binding was seen depends on the method and setting. Some results given as binding are weak or reduced against the parent protein; the word gives no strength.

By UniProt entry, the sequences of proteins in these tests, tags left out. Where a name states a change or a piece, a line headed by the entry shows the natural chain unless it says otherwise.
UniProt Q8NBP7: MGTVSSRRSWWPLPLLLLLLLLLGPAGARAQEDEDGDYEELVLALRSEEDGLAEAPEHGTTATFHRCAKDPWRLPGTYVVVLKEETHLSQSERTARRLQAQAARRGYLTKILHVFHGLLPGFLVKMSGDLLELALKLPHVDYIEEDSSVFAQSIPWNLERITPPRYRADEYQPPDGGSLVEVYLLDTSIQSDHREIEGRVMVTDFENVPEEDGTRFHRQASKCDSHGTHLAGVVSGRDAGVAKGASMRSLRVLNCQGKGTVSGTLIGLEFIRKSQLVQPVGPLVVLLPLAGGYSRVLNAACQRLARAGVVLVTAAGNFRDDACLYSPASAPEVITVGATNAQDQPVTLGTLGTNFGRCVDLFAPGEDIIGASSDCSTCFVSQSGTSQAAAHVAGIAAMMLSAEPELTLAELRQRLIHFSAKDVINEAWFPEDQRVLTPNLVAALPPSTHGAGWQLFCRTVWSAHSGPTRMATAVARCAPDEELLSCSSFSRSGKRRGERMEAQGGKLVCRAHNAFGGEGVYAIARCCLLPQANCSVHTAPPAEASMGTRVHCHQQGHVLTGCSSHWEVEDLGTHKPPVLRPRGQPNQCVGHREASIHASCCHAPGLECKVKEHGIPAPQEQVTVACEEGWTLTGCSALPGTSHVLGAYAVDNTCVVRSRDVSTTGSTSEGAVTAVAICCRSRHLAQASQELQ

How the values were obtained:
[1] = biological target: original PCSK9 (PCSK9 (human) recombinant protein, Abnova Cat No: H00255738-P01) (human) (UniProt Q8NBP7); experiment: ELISA, original PCSK9 coated at 1 ug/mL, IgG in threefold dilutions from 10 ug/mL
[2] = biological target: original PCSK9 (PCSK9 (human) recombinant protein, Abnova Cat No: H00255738-P01) (human) (UniProt Q8NBP7); experiment: Octet, IgG immobilized, original PCSK9 as analyte in twofold dilutions from 200 nM, 1:1 model

binding [1]	binding [2]	Binder
binds	binds	hz7D1.11 IgG (antibody, V domains shown) VH: QVQLVQSGAEVKKPGASVKVSCKASGFNIKDYYMHWVRQAPGQGLEWIGYIDPENGDTEYAPKFQGRATMTADTSISTAYMELSRLRSDDTAVYYCRSSPFTYWGQGTLVTVSS VL: DVVMTQSPLSLPVTLGQPASISCKSSQSLLDSDGKTYLNWLQQRPGQSPRRLIYLVSKLDSGVPDRFSGSGSGTDFTLKISRVEAEDVGVYYCWQGTHFPQTFGGGTKVEIKR
binds	binds	hz7D1.22 IgG (antibody, V domains shown) VH: QVQLVQSGAEVKKPGASVKVSCKASGYTFKDYYMHWVRQAPGQGLEWMGYIDPENGDTEYAPKFQGRVTMTADTSISTAYMELSRLRSDDTAVYYCRSSPFTYWGQGTLVTVSS VL: DVVMTQSPLSLPVTLGQPASISCKSSQSLLDSDGKTYLNWFQQRPGQSPRRLIYLVSKLDSGVPDRFSGSGSGTDFTLKISRVEAEDVGVYYCWQGTHFPQTFGGGTKVEIKR
